Some of the results follow.

Sequences of proteins named here, by UniProt entry; tags and fusion partners are left off. A change or cut given only in a name is not applied to a line headed by its entry.
UniProt Q9H0H5: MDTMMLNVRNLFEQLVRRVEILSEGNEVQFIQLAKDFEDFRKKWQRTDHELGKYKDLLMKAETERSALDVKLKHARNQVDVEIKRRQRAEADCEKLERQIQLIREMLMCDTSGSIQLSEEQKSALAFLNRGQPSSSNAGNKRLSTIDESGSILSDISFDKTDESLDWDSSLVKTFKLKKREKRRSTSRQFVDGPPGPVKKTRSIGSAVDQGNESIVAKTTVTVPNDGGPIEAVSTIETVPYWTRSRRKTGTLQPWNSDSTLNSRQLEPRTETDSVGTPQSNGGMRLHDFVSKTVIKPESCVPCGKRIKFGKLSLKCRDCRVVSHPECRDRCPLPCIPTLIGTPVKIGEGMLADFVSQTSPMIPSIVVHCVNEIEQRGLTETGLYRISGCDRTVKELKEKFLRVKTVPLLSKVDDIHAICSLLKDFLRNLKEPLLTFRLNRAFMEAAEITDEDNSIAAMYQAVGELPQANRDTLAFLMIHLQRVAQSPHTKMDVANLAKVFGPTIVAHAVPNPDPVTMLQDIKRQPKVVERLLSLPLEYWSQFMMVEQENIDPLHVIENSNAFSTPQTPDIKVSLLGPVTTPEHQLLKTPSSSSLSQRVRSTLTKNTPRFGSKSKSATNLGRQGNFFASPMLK
UniProt O60671: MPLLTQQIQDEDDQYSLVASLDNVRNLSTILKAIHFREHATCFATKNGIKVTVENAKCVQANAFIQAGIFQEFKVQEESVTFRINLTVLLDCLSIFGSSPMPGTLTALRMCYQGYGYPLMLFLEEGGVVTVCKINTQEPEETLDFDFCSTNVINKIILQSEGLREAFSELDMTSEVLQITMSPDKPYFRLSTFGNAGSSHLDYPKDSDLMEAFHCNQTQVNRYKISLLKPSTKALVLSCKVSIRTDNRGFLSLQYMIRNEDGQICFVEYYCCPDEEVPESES
UniProt Q7Z6M1: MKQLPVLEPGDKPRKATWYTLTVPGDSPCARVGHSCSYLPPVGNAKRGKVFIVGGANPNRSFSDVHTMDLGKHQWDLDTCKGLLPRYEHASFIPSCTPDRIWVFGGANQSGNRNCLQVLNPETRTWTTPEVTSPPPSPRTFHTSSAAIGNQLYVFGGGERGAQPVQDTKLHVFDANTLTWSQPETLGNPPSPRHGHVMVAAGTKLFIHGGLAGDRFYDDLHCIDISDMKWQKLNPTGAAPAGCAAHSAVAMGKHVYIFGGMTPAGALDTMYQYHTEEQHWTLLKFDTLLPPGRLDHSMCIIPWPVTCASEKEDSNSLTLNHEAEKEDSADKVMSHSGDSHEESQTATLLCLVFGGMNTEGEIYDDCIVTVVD
UniProt Q15276: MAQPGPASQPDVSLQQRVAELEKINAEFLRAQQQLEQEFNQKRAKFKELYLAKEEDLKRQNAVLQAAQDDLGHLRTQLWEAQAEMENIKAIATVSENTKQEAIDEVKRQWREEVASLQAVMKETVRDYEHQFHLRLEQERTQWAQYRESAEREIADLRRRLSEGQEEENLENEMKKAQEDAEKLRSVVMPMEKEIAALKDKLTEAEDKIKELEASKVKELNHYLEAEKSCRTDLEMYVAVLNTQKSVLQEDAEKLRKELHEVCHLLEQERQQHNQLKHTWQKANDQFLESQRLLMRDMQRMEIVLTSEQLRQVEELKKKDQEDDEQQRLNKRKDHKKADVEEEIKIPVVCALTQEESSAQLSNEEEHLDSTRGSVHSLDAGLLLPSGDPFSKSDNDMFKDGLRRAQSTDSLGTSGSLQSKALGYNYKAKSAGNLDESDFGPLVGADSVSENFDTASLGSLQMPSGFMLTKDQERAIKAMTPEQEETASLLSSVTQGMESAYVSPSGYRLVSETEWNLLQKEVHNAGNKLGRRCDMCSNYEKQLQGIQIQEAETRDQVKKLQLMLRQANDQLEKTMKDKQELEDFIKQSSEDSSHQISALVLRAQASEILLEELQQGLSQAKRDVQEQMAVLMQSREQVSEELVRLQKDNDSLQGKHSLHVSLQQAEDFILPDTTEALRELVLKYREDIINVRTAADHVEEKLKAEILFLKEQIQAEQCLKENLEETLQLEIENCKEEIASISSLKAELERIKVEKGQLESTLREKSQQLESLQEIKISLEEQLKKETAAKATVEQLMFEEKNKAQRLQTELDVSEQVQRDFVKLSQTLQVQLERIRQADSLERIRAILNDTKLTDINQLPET
UniProt Q9UI14, whole entry, looked up: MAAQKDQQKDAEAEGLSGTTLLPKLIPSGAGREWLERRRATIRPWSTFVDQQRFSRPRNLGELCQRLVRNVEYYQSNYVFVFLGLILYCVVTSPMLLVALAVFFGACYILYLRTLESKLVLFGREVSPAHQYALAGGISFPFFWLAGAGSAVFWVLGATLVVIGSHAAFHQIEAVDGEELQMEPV
UniProt P61020: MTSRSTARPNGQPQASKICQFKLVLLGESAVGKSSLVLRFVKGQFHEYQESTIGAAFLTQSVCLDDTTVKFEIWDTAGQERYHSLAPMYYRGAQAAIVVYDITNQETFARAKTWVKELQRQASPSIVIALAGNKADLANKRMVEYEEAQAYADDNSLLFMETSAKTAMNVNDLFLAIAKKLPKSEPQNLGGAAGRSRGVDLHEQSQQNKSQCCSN
UniProt Q9NRW1: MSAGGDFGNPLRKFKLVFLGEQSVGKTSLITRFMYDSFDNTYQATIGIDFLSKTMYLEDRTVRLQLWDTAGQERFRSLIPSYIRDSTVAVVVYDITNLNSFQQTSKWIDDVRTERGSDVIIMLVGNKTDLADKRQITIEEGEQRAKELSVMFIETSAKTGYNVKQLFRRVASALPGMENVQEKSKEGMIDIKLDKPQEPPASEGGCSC
UniProt P20339: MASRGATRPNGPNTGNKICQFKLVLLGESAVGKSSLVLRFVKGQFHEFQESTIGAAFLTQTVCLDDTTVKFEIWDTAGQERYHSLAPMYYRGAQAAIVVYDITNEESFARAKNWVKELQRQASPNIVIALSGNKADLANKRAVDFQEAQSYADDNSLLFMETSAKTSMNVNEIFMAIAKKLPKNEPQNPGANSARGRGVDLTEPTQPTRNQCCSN
UniProt Q53H96: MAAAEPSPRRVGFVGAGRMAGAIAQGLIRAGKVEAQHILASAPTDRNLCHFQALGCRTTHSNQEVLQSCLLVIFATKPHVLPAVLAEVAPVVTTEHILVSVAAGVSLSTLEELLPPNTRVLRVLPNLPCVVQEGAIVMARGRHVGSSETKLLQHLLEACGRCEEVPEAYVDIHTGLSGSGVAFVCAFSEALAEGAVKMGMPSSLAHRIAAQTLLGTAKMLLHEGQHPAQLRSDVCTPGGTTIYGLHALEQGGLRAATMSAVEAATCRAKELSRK
UniProt P61026: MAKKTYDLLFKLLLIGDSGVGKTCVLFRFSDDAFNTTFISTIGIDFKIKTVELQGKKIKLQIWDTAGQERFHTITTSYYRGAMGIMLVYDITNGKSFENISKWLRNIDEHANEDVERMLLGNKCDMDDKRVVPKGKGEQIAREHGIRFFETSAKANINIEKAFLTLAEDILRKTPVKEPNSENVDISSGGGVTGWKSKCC
UniProt Q92930: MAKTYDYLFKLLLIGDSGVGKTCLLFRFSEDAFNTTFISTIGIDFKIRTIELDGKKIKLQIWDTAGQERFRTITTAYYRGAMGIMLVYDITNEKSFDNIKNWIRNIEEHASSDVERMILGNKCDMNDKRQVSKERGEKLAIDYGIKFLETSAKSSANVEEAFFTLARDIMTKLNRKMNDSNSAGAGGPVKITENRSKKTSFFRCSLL
UniProt P20340: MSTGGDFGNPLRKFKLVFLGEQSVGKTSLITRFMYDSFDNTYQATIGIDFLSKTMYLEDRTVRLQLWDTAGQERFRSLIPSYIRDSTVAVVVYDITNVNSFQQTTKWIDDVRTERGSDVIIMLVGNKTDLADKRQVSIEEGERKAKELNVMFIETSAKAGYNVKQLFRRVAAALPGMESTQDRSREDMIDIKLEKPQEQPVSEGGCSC
UniProt Q9Y3L5: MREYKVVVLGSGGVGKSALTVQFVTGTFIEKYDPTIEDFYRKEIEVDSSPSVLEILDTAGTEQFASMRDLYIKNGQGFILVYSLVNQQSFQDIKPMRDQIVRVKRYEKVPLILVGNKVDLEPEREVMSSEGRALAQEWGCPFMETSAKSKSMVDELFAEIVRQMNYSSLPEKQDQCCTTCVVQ
UniProt P47736: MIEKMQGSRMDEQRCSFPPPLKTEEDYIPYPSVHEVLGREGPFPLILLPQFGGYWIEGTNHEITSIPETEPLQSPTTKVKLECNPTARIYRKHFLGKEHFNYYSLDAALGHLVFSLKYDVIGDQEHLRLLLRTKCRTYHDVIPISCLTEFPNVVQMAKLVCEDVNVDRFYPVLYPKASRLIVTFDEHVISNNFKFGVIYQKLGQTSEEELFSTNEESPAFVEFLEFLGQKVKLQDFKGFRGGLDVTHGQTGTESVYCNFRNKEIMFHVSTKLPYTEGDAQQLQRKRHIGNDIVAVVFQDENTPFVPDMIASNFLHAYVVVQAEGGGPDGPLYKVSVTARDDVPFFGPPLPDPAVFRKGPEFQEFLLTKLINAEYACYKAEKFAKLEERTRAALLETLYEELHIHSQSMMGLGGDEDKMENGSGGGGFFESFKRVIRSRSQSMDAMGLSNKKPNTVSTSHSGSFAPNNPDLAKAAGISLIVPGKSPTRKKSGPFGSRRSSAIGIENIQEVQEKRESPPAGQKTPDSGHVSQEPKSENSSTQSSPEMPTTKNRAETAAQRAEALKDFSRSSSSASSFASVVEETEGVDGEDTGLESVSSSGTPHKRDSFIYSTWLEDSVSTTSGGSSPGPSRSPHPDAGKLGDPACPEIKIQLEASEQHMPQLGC
UniProt Q06609, whole entry, looked up: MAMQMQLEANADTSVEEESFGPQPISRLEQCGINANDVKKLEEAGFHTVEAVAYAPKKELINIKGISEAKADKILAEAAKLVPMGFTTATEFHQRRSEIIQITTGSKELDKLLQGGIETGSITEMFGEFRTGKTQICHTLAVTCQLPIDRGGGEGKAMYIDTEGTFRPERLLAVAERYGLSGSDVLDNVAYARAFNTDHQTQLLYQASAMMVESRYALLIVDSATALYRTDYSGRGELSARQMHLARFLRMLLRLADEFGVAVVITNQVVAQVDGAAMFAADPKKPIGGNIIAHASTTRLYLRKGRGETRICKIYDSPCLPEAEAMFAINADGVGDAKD
UniProt P54727: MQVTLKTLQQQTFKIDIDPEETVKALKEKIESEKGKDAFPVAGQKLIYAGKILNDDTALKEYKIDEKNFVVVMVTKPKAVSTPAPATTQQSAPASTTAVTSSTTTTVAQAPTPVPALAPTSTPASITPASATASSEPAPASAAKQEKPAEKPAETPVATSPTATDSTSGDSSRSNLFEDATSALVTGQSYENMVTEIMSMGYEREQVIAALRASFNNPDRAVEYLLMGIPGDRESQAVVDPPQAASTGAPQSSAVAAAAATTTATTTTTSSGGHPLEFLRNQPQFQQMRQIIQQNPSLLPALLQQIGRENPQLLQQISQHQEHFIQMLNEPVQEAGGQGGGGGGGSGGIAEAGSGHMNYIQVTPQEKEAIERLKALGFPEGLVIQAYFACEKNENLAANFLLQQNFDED
UniProt P62491: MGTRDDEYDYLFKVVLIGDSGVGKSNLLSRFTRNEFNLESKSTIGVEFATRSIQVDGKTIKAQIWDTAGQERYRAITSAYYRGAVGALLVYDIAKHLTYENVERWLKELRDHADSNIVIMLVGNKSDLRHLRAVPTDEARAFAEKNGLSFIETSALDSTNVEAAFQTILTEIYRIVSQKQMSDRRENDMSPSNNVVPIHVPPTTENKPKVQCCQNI
UniProt Q9H0R6: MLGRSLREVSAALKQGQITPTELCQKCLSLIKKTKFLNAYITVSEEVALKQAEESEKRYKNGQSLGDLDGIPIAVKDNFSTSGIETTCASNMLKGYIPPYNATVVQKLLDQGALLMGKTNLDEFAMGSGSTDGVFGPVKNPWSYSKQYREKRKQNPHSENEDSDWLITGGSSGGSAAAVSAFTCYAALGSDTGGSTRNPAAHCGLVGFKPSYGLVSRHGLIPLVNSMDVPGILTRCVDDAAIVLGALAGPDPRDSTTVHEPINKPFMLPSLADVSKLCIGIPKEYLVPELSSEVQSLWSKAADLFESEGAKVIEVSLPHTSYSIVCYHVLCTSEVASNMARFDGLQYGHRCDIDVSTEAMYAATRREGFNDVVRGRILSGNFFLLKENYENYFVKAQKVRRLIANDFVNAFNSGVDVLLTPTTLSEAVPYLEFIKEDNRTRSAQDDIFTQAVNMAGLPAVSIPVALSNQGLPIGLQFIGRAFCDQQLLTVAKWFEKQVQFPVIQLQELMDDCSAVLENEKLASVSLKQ
UniProt P62834: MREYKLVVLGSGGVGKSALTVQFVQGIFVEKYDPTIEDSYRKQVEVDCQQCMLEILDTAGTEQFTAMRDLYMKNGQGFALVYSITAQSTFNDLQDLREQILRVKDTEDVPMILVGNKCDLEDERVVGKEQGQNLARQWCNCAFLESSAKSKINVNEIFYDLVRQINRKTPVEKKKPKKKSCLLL
UniProt P61224: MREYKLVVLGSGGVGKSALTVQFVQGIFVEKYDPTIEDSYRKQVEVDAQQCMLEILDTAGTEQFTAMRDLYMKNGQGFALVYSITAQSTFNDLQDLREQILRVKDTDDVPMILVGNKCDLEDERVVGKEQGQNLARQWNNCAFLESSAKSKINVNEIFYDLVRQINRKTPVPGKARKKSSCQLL

Compound in one experiment: CC1=C(C2=C(C=C1)C(=O)C3=CC=CC=C3N2CCCN)C
Nature of the experiment: log2 fold change, soluble protein after heating vs DMSO (PISA); higher = thermal stabilisation; K562 lysate, 10 uM; active = over 0.2 and 3.5 SD of the protein, either way, in both replicates (recomputed). Put shortly: (§1)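 Quantification was by TMTpro 16plex LC-MS/MS with equalised channel sums, applied to the supernatant after 21,000xg for 90 min. Samples were crude K562 extract at 1 mg/mL protein in PBS pH 7.4 with 1 mM MgCl2, treated with 10 μM compound for 30 min, heated for 3 min across 48°C-58°C, pooled and brought to 0.5% NP-40 at 4°C. Values are log-two fold changes in thermal stability relative to solvent controls, from duplicates.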
For RACGAP1 (UniProt Q9H0H5), the log2 fold change was inactive: -0.02.

For the target RAD1 (UniProt O60671), the log2 fold change was inactive: -0.046.

Take RAC2 (UniProt P15153): the log2 fold change is inactive: 0.017.

With RABEPK (UniProt Q7Z6M1), the log2 fold change was inactive: -0.007.

For RANBP9 (UniProt Q96S59), the log2 fold change was inactive: 0.005.

Take RAD51C (UniProt O43502): the log2 fold change is inactive: -0.039.

Turning to RABGEF1 isoform 3 (UniProt Q9UJ41), the log2 fold change was inactive: -0.021.

With RANBP6 (UniProt O60518), the log2 fold change is inactive: -0.017.

For the target RABEP1 (UniProt Q15276), the log2 fold change is inactive: -0.021.

Take RALGAPA1 isoform 6 (UniProt Q6GYQ0): the log2 fold change was inactive: 0.02.

As for RABAC1 (UniProt Q9UI14), the log2 fold change was inactive: -0.01.

As for RAB5B (UniProt P61020), the log2 fold change was inactive: 0.031.

In the case of RAB6B (UniProt Q9NRW1), the log2 fold change is inactive: 0.008.

Turning to RAB5A (UniProt P20339), the log2 fold change is inactive: -0.036.

As for RAB24 (UniProt Q969Q5), the log2 fold change is inactive: -0.012.

As to PYCR3 (UniProt Q53H96), the log2 fold change is inactive: -0.042.

As to RAB10 (UniProt P61026), the log2 fold change is inactive: 0.006.

Turning to RAN (UniProt P62826), the log2 fold change is inactive: -0.002.

In the case of RAP2B (UniProt P61225), the log2 fold change was inactive: -0.03.

For the target RAB8B (UniProt Q92930), the log2 fold change is inactive: -0.001.

Turning to RAB6A isoform 4 (UniProt P20340), the log2 fold change is inactive: 0.06.

Take RAB20 (UniProt Q9NX57): the log2 fold change was inactive: -0.061.

RAP2C (UniProt Q9Y3L5): the log2 fold change was inactive: -0.03.

With RAP1GAP isoform 4 (UniProt P47736), the log2 fold change is inactive: -0.008.

With RAD51 (UniProt Q06609), the log2 fold change is inactive: -0.064.

Take RAD23B (UniProt P54727): the log2 fold change is inactive: -0.015.

For the target RAP2A (UniProt P10114), the log2 fold change is inactive: -0.039.

With RAB11A (UniProt P62491), the log2 fold change was inactive: -0.037.

As for QRSL1 (UniProt Q9H0R6), the log2 fold change is inactive: -0.073.

Consider RAP1A (UniProt P62834), for which the log2 fold change is inactive: 0.001.

Turning to RAP1B (UniProt P61224), the log2 fold change is inactive: 0.004.

For the target RAPGEF2, A0A2R8YGD3, the log2 fold change was inactive: -0.07.

RANBP17 (UniProt Q9H2T7): the log2 fold change is inactive: 0.011.

Compound in a further experiment: CC1=C(C=C(C=C1)NC(=O)C2=CC(=CC=C2)C(C)(C)C#N)NC3=CC4=C(C=C3)N=CN(C4=O)C
The description is as above. Summed up:
as §1
As for RACGAP1 (UniProt Q9H0H5), the log2 fold change was inactive: 0.037.

Consider RAD1 (UniProt O60671), for which the log2 fold change was inactive: 0.042.

For RAC2 (UniProt P15153), the log2 fold change is inactive: -0.022.

As for RABEPK (UniProt Q7Z6M1), the log2 fold change was inactive: 0.008.

Consider RANBP9 (UniProt Q96S59), for which the log2 fold change was inactive: 0.024.

Consider RAD51C (UniProt O43502), for which the log2 fold change was inactive: 0.

For RABGEF1 isoform 3 (UniProt Q9UJ41), the log2 fold change was inactive: -0.002.

For the target RANBP6 (UniProt O60518), the log2 fold change is inactive: -0.009.

As for RABEP1 (UniProt Q15276), the log2 fold change was inactive: 0.004.

Consider RALGAPA1 isoform 6 (UniProt Q6GYQ0), for which the log2 fold change was inactive: -0.007.

As to RABAC1 (UniProt Q9UI14), the log2 fold change was inactive: 0.118.

In the case of RAB5B (UniProt P61020), the log2 fold change is inactive: 0.053.

As to RAB6B (UniProt Q9NRW1), the log2 fold change is inactive: -0.01.

Turning to RAB5A (UniProt P20339), the log2 fold change was inactive: 0.024.

On to RAB24 (UniProt Q969Q5), for which the log2 fold change is inactive: 0.024.

With PYCR3 (UniProt Q53H96), the log2 fold change was inactive: 0.02.

Regarding RAB10 (UniProt P61026), the log2 fold change is inactive: -0.051.

Consider RAN (UniProt P62826), for which the log2 fold change is inactive: -0.023.

Consider RAP2B (UniProt P61225), for which the log2 fold change was inactive: 0.015.

For RAB8B (UniProt Q92930), the log2 fold change was inactive: 0.01.

RAB6A isoform 4 (UniProt P20340): the log2 fold change is inactive: -0.001.

As to RAB20 (UniProt Q9NX57), the log2 fold change was inactive: -0.013.

Regarding RAP2C (UniProt Q9Y3L5), the log2 fold change was inactive: 0.009.

As for RAP1GAP isoform 4 (UniProt P47736), the log2 fold change is inactive: 0.056.

As to RAD51 (UniProt Q06609), the log2 fold change was inactive: -0.049.

Take RAD23B (UniProt P54727): the log2 fold change is inactive: 0.031.

For the target RAP2A (UniProt P10114), the log2 fold change was inactive: 0.041.

As to RAB11A (UniProt P62491), the log2 fold change is inactive: 0.001.

With QRSL1 (UniProt Q9H0R6), the log2 fold change is inactive: -0.041.

For the target RAP1A (UniProt P62834), the log2 fold change is inactive: 0.002.

For the target RAP1B (UniProt P61224), the log2 fold change is inactive: 0.008.

Consider RAPGEF2, A0A2R8YGD3, for which the log2 fold change is inactive: 0.025.

In the case of RANBP17 (UniProt Q9H2T7), the log2 fold change was inactive: 0.048.

Compound in a further experiment: CC1=C(C=C(C=C1)NC(=O)C2=CC(=CC=C2)N(C)C)NC(=O)C3=CC=C(C=C3)O
Described as above. Summed up:
as §1
As for RACGAP1 (UniProt Q9H0H5), the log2 fold change is inactive: 0.039.

On to RAD1 (UniProt O60671), for which the log2 fold change is inactive: -0.003.

In the case of RAC2 (UniProt P15153), the log2 fold change is inactive: 0.045.

Regarding RABEPK (UniProt Q7Z6M1), the log2 fold change is inactive: 0.001.

As to RANBP9 (UniProt Q96S59), the log2 fold change was inactive: 0.053.

Take RAD51C (UniProt O43502): the log2 fold change is inactive: -0.037.

As for RABGEF1 isoform 3 (UniProt Q9UJ41), the log2 fold change is inactive: 0.014.

For the target RANBP6 (UniProt O60518), the log2 fold change was inactive: 0.026.

With RABEP1 (UniProt Q15276), the log2 fold change is inactive: 0.003.

Turning to RALGAPA1 isoform 6 (UniProt Q6GYQ0), the log2 fold change is inactive: 0.038.

Consider RABAC1 (UniProt Q9UI14), for which the log2 fold change is inactive: -0.084.

Regarding RAB5B (UniProt P61020), the log2 fold change was inactive: -0.027.

Consider RAB6B (UniProt Q9NRW1), for which the log2 fold change is inactive: -0.016.

With RAB5A (UniProt P20339), the log2 fold change was inactive: -0.031.

Take RAB24 (UniProt Q969Q5): the log2 fold change was inactive: -0.019.

For the target PYCR3 (UniProt Q53H96), the log2 fold change was inactive: 0.007.

RAB10 (UniProt P61026): the log2 fold change is inactive: -0.057.

As for RAN (UniProt P62826), the log2 fold change is inactive: 0.002.

Regarding RAP2B (UniProt P61225), the log2 fold change is inactive: -0.004.

With RAB8B (UniProt Q92930), the log2 fold change is inactive: 0.099.

RAB6A isoform 4 (UniProt P20340): the log2 fold change was inactive: -0.004.

In the case of RAB20 (UniProt Q9NX57), the log2 fold change is inactive: -0.05.

In the case of RAP2C (UniProt Q9Y3L5), the log2 fold change was inactive: -0.087.

Consider RAP1GAP isoform 4 (UniProt P47736), for which the log2 fold change is inactive: -0.009.

On to RAD51 (UniProt Q06609), for which the log2 fold change is inactive: 0.009.

Regarding RAD23B (UniProt P54727), the log2 fold change was inactive: 0.013.

Take RAP2A (UniProt P10114): the log2 fold change was inactive: -0.028.

In the case of RAB11A (UniProt P62491), the log2 fold change was inactive: -0.02.

For QRSL1 (UniProt Q9H0R6), the log2 fold change is inactive: 0.027.

With RAP1A (UniProt P62834), the log2 fold change is inactive: -0.029.

Turning to RAP1B (UniProt P61224), the log2 fold change was inactive: -0.017.

In the case of RAPGEF2, A0A2R8YGD3, the log2 fold change is inactive: -0.025.

On to RANBP17 (UniProt Q9H2T7), for which the log2 fold change was inactive: 0.013.
